The target of assay [1] is T1, CCCTC binding factor (CTCF) (human (endogenous in HEK293T)) (UniProt P49711).
T1 sequence: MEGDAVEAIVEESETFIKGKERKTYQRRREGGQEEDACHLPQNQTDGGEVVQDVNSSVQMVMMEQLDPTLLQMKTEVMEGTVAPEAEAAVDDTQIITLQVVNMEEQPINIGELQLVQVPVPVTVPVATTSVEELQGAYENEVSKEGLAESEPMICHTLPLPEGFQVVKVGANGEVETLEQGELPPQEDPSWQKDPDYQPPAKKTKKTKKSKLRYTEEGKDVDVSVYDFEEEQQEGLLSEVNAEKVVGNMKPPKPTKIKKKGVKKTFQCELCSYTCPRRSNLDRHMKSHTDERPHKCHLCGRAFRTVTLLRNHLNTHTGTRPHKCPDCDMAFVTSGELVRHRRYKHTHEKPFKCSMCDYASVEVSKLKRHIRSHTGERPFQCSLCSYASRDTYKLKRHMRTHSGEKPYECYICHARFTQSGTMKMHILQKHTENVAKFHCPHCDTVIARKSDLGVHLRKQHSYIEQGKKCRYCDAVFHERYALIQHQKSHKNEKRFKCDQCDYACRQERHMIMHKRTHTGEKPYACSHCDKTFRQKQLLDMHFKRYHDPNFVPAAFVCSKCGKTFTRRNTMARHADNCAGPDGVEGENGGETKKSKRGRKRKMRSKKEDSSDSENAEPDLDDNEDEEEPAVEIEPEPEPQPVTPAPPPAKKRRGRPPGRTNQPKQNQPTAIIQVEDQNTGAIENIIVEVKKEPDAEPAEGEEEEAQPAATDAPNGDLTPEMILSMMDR
Put plainly: condition: only Wnt-OFF (LGK), without Wnt signaling induction; proximity ligation; Duolink PLA kit in HEK293T cells, Wnt-OFF (1 nM LGK, 24 h); endogenous proteins detected with mouse anti-beta-catenin and rabbit anti-CTCF (1:200); foci per nucleus counted by confocal microscopy.

Amino acid sequences for entries named in this document (tags omitted).
UniProt Q9UJU2: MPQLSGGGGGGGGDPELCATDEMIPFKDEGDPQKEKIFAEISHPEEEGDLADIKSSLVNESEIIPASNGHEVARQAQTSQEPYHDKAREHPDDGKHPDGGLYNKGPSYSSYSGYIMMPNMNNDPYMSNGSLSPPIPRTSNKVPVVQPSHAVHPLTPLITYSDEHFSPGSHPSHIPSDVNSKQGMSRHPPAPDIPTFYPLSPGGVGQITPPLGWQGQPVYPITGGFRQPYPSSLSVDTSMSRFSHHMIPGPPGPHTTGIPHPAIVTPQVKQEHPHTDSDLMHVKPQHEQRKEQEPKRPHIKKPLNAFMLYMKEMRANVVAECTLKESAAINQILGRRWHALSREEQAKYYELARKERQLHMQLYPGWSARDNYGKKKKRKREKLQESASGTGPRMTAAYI
UniProt P35222: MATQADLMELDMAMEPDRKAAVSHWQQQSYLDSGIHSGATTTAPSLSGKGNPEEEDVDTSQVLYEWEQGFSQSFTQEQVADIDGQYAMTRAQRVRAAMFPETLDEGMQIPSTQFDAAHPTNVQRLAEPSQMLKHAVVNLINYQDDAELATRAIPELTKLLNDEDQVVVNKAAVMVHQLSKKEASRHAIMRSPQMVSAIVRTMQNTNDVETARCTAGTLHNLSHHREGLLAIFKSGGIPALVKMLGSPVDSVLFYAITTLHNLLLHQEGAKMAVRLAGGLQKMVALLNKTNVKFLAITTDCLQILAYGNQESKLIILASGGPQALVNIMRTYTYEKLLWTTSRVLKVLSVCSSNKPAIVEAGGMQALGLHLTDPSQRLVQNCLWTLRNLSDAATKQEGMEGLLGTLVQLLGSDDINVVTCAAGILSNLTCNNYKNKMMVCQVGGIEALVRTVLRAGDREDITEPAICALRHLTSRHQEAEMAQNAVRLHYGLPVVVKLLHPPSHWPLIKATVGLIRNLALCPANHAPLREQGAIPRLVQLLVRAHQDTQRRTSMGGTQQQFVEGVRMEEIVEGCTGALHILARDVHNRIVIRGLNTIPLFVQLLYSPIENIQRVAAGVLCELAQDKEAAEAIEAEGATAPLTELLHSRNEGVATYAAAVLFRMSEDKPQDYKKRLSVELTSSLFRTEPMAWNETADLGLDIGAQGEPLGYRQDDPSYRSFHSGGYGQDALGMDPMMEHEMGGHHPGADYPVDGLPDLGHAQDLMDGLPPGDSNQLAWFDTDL

For another assay, the target named is LEF1-FLAG (UniProt Q9UJU2). Nature of the assay: co-IP; nuclear lysates; overexpressed LEF1-FLAG pulled down with anti-FLAG, mouse IgG isotype control; western blot with anti-CTCF. For orientation: Immunoblotting shows a protein as a band on a membrane.

Our source for the binding values is paper PMC12315713.

No constants are given. Whether binding was seen depends on the method and setting. In cells and extracts the contact can be indirect.

Consider “CTNNB1 (also known as beta-catenin) (from UniProt P35222 1-781)”, for which the binding entry in assay [1] was “no binding”.

B1: CCCTC binding factor (CTCF) (protein, UniProt P49711 1-727)
chain: MEGDAVEAIVEESETFIKGKERKTYQRRREGGQEEDACHLPQNQTDGGEVVQDVNSSVQMVMMEQLDPTLLQMKTEVMEGTVAPEAEAAVDDTQIITLQVVNMEEQPINIGELQLVQVPVPVTVPVATTSVEELQGAYENEVSKEGLAESEPMICHTLPLPEGFQVVKVGANGEVETLEQGELPPQEDPSWQKDPDYQPPAKKTKKTKKSKLRYTEEGKDVDVSVYDFEEEQQEGLLSEVNAEKVVGNMKPPKPTKIKKKGVKKTFQCELCSYTCPRRSNLDRHMKSHTDERPHKCHLCGRAFRTVTLLRNHLNTHTGTRPHKCPDCDMAFVTSGELVRHRRYKHTHEKPFKCSMCDYASVEVSKLKRHIRSHTGERPFQCSLCSYASRDTYKLKRHMRTHSGEKPYECYICHARFTQSGTMKMHILQKHTENVAKFHCPHCDTVIARKSDLGVHLRKQHSYIEQGKKCRYCDAVFHERYALIQHQKSHKNEKRFKCDQCDYACRQERHMIMHKRTHTGEKPYACSHCDKTFRQKQLLDMHFKRYHDPNFVPAAFVCSKCGKTFTRRNTMARHADNCAGPDGVEGENGGETKKSKRGRKRKMRSKKEDSSDSENAEPDLDDNEDEEEPAVEIEPEPEPQPVTPAPPPAKKRRGRPPGRTNQPKQNQPTAIIQVEDQNTGAIENIIVEVKKEPDAEPAEGEEEEAQPAATDAPNGDLTPEMILSMMDR
As to B1, the binding entry in the assay with LEF1-FLAG is listed as “no binding”.
